Measured values published in PMC11555414.
Results are given in words; binding and its absence hold for the method and conditions named. In cells and extracts the contact can be indirect. A yes stands for co-enrichment or nearness to the bait. Other partners may have been found.

The chains behind the UniProt entries cited, without tags or fusion partners. Residues count along the entry.
UniProt P23368, residues 19-584: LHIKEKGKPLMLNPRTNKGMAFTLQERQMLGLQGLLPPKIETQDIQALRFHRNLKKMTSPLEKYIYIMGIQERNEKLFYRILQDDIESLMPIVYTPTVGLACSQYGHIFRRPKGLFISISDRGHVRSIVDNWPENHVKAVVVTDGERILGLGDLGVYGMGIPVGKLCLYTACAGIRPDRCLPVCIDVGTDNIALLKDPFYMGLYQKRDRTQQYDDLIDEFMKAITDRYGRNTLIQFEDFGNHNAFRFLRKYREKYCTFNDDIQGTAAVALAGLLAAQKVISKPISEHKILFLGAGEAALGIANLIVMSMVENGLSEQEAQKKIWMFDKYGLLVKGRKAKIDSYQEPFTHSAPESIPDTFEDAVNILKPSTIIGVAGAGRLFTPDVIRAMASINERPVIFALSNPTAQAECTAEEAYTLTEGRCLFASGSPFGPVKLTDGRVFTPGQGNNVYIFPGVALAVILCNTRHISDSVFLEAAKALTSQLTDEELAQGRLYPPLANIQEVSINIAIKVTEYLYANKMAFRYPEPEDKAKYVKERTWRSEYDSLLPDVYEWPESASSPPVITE
UniProt Q969H0: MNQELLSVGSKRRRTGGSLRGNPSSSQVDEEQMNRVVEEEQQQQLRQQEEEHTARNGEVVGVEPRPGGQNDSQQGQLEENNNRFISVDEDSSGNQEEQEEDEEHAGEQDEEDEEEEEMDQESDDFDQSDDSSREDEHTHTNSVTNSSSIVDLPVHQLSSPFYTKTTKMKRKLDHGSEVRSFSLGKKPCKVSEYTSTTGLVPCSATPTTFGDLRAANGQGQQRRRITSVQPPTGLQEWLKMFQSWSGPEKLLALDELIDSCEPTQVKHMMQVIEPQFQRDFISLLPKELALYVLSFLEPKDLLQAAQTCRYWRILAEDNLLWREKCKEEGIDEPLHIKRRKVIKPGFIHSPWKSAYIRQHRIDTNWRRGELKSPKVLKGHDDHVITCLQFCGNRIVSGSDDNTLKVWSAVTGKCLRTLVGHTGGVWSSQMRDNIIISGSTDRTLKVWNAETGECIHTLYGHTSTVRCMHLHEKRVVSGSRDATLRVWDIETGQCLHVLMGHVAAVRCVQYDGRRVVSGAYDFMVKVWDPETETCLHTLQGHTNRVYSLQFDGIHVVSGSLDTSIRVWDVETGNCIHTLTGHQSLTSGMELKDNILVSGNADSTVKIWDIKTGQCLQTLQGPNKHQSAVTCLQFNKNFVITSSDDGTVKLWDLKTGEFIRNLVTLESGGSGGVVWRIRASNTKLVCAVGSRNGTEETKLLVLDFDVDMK
UniProt Q99873: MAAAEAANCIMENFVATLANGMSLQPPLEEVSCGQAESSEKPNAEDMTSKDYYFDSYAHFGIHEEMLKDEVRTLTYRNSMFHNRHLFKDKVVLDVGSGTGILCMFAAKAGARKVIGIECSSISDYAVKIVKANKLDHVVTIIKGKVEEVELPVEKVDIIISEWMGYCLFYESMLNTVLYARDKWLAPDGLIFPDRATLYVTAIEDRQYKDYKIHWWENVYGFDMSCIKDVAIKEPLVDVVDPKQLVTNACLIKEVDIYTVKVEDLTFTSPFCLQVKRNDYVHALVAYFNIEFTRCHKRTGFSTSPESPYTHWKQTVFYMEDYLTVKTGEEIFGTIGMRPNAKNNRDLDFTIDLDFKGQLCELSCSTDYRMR

Target: HA-tagged ME2 (mitochondrial malic enzyme 2) (human) (UniProt P23368)
Test: affinity purification with mass spectrometry; HEK293T cells consistently expressing HA-ME2 lysed, IP with HA beads, SDS-PAGE, Coomassie-stained bands digested with trypsin, LC-MS/MS

Row | binding | Substance
1 | binds | FBW7, endogenous in HEK293T (from UniProt Q969H0 1-707)
2 | binds | protein arginine methyltransferase 1 (PRMT1), endogenous in HEK293T (from UniProt Q99873 1-371) (enzyme)
